Reference: patent US20060134119A1, “Drugs containing galectin 9” (priority 2003, published 2006)
No constants are given. Whether binding was seen depends on the method and setting. For some assays here: Binding seen in cells or lysates may run through a third protein. Some entries that bind do so weakly or less than the wild type.

Protein sequences, listed by entry. Tags and fused reporters are not part of them. Lines headed by an entry give the natural chain unless they say otherwise; changes in a name come on top. Chains listed by the source or under a name are the forms on record and can include a tag or linker. Residues count along the entry.
UniProt O00182, residues 210-355: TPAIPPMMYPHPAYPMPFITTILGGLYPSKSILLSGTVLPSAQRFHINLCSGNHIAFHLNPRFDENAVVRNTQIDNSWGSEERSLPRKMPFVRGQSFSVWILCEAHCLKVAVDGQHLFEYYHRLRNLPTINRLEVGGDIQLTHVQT
Hnrnp A1 (P09651, form named): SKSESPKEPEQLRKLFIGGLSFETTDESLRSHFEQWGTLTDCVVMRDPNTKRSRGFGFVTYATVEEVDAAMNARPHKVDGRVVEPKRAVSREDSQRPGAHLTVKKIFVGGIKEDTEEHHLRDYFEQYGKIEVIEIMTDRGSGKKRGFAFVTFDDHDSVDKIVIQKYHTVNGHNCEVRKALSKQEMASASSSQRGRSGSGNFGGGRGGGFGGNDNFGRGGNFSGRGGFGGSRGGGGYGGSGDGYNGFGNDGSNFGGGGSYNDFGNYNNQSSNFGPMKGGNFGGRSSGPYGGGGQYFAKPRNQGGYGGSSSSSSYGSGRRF
UniProt P28331, residues 24-727: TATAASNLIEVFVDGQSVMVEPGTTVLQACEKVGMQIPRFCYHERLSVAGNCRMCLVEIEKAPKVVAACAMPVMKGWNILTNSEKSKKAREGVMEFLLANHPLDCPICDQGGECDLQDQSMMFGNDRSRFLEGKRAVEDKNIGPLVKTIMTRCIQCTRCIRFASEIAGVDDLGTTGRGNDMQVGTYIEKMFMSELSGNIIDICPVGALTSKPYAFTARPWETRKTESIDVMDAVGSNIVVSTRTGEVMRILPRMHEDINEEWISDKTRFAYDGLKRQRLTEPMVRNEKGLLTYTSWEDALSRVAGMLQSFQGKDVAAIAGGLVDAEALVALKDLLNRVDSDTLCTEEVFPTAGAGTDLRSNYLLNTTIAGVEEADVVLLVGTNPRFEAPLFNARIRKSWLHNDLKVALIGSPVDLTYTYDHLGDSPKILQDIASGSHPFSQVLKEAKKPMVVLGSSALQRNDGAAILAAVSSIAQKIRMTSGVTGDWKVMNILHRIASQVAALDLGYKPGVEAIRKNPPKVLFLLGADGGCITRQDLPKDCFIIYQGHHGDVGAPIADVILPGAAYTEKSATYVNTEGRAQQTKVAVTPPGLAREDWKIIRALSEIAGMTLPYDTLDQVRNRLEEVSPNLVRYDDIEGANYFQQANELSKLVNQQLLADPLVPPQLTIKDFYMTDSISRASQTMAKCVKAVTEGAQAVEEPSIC
UniProt O95573: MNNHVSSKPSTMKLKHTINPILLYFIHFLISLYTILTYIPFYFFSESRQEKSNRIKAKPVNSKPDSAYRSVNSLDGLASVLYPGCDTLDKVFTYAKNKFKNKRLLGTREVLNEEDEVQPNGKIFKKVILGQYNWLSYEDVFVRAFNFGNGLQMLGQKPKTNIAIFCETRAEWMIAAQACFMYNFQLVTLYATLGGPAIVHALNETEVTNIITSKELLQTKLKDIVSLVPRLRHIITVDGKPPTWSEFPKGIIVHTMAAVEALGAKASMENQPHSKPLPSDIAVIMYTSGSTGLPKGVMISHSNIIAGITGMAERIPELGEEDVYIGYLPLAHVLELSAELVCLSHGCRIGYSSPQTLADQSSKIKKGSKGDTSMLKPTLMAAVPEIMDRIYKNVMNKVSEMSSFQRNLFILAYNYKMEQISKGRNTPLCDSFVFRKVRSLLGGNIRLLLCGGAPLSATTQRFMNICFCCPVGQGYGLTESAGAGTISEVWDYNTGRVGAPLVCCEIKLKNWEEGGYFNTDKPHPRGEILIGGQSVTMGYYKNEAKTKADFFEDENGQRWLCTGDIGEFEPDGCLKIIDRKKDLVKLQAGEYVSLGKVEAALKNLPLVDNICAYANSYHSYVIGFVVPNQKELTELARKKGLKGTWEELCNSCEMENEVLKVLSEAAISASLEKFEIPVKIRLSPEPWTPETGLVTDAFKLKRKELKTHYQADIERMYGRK
UniProt P11021, residues 19-654: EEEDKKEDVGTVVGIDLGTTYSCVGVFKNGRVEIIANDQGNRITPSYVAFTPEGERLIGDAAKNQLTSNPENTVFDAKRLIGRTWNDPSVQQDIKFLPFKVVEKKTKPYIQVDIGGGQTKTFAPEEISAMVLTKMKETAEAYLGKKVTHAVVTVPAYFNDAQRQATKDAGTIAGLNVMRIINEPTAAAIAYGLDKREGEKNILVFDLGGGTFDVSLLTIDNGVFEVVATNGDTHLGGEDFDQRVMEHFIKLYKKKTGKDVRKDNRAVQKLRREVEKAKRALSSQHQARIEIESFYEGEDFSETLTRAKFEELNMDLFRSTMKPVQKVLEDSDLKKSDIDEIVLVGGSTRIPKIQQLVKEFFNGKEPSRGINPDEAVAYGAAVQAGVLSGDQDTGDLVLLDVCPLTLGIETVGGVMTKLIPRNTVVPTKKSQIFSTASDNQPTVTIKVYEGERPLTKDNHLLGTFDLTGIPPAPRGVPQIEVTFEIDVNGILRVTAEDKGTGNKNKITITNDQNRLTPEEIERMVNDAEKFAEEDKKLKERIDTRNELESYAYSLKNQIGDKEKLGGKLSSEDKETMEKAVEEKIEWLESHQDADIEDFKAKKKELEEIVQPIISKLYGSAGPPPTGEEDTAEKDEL
UniProt P38646, residues 47-679: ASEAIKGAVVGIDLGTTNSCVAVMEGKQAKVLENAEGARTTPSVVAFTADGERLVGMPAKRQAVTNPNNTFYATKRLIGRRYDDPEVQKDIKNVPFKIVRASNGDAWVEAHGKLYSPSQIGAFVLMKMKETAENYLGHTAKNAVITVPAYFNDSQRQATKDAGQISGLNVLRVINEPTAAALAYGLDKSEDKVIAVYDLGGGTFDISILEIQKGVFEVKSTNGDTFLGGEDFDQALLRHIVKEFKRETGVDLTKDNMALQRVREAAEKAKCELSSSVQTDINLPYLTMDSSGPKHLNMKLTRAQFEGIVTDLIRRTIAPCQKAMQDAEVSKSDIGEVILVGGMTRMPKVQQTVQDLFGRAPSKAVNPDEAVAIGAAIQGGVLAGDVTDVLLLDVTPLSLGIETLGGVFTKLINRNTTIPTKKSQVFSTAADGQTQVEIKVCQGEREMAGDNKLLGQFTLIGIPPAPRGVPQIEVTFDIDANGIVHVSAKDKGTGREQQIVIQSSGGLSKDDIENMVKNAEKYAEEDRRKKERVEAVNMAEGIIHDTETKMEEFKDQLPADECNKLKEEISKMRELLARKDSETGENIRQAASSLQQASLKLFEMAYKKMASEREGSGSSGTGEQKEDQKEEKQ
UniProt O75947, residues 2-161: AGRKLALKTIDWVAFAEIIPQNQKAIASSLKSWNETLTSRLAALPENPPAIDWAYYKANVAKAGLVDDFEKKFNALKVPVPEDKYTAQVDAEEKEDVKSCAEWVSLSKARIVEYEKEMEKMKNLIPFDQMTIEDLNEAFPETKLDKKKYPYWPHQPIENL
UniProt O00217, residues 35-210: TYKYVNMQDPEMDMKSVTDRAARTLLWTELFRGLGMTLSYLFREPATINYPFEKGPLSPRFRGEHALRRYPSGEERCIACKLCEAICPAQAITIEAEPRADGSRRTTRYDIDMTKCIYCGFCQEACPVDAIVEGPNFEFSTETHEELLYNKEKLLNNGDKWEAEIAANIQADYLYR
UniProt O75396, residues 2-215: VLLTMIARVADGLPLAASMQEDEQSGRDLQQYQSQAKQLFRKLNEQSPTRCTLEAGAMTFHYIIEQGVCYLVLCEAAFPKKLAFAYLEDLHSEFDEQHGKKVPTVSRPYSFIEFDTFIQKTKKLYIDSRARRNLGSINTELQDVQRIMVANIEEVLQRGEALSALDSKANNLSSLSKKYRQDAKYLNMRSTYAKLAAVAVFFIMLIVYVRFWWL
UniProt P10809, residues 27-573: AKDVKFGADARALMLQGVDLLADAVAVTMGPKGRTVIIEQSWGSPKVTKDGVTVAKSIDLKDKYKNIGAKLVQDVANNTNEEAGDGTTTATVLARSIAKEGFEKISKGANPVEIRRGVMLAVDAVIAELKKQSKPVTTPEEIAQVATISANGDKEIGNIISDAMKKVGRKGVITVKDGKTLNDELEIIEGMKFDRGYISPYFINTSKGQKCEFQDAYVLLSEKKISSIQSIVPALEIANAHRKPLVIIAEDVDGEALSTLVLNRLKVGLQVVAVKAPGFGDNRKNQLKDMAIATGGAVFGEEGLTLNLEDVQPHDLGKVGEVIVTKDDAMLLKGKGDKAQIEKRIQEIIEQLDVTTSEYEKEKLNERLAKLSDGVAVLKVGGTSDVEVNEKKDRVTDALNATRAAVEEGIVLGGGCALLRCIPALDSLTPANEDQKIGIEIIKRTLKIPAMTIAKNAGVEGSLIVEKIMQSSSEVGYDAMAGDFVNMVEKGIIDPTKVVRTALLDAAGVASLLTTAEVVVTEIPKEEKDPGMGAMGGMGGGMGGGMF
UniProt O43865, residues 2-530: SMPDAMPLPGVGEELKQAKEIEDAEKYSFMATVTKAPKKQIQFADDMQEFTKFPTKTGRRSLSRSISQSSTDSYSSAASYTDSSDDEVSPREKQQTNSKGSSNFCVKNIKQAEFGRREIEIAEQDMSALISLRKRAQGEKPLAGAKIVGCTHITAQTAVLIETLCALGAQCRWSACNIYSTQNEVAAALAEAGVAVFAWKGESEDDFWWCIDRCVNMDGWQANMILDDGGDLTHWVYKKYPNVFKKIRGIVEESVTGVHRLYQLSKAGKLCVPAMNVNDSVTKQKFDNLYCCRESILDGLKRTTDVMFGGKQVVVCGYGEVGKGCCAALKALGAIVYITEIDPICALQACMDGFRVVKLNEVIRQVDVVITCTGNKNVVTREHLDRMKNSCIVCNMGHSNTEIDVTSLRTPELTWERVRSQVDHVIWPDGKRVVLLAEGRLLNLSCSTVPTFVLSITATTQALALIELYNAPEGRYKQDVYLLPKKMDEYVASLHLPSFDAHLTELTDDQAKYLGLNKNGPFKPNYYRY
UniProt Q07021, residues 74-282: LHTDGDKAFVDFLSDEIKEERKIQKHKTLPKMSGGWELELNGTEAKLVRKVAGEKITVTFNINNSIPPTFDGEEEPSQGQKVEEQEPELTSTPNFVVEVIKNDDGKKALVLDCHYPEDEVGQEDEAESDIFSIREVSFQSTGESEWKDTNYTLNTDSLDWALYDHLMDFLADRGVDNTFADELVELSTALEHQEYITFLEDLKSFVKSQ
UniProt P21796, residues 2-283: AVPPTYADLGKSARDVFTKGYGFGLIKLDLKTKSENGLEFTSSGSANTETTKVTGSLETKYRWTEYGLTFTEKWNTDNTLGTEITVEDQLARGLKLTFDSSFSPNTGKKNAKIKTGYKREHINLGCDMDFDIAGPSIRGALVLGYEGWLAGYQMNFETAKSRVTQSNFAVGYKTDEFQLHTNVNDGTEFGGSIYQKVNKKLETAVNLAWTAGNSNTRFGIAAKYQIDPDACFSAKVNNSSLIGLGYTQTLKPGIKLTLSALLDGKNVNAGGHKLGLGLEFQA
UniProt P08238, residues 2-724: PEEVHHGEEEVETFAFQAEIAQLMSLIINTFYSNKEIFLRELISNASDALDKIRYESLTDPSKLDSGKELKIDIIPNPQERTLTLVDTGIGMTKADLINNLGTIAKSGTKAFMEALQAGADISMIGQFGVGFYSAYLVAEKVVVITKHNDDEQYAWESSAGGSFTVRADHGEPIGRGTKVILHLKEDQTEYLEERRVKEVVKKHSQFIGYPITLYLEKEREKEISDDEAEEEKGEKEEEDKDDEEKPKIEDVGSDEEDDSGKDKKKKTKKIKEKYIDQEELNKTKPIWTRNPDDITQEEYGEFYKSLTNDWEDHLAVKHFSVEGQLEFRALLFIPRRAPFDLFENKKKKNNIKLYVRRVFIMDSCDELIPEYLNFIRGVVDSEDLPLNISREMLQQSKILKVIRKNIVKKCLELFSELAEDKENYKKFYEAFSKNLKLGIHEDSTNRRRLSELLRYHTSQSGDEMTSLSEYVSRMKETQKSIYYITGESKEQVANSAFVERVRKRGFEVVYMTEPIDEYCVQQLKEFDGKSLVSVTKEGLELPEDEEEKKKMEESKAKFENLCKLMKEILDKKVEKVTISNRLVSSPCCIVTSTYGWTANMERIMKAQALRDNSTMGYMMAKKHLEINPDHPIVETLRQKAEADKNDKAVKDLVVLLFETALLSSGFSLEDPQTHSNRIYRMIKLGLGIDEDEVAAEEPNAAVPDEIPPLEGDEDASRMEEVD
stromal cell derived factor receptor 1 isoform a (Q9Y639, form named): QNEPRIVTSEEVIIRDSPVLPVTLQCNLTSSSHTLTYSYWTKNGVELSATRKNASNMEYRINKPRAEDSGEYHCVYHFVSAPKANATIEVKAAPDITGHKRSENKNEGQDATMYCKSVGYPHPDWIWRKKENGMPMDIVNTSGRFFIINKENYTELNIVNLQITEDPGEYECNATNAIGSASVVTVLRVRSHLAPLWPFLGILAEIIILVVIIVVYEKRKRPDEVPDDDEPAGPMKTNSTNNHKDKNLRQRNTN

B1: metaxin 1 (protein, human, UniProt Q13505-3 1-317, looked up)
chain: MAAPMELFCWSGGWGLPSVDLDSLAVLTYARFTGAPLKVHKISNPWQSPSGTLPALRTSHGEVISVPHKIITHLRKEKYNADYDLSARQGADTLAFMSLLEEKLLPVLVHTFWIDTKNYVEVTRKWYAEAMPFPLNFFLPGRMQRQYMERLQLLTGEHRPEDEEELEKELYREARECLTLLSQRLGSQKFFFGDAPASLDAFVFSYLALLLQAKLPSGKLQVHLRGLHNLCAYCTHILSLYFPWDGAEVPPQRQTPAGPETEEEPYRRRNQILSVLAGLAAMVGYALLSGIVSIQRATPARAPGTRTLGMAEEDEEE
B2: sideroflexin 1 (protein, human, UniProt Q9H9B4 2-322, looked up)
chain: SGELPPNINIKEPRWDQSTFIGRANHFFTVTDPRNILLTNEQLESARKIVHDYRQGIVPPGLTENELWRAKYIYDSAFHPDTGEKMILIGRMSAQVPMNMTITGCMMTFYRTTPAVLFWQWINQSFNAVVNYTNRSGDAPLTVNELGTAYVSATTGAVATALGLNALTKHVSPLIGRFVPFAAVAAANCINIPLMRQRELKVGIPVTDENGNRLGESANAAKQAITQVVVSRILMAAPGMAIPPFIMNTLEKKAFLKRFPWMSAPIQVGLVGFCLVFATPLCCALFPQKSSMSVTSLEAELQAKIQESHPELRRVYFNKGL
B3: ATP synthase, H^+ transporting, mitochondrial F1 complex, O subunit (enzyme, human, UniProt P48047 24-213, looked up)
chain: FAKLVRPPVQVYGIEGRYATALYSAASKQNKLEQVEKELLRVAQILKEPKVAASVLNPYVKRSIKVKSLNDITAKERFSPLTTNLINLLAENGRLSNTQGVVSAFSTMMSVHRGEVPCTVTSASPLEEATLSELKTVLKSFLSQGQVLKLEAKTDPSILGGMIVRIGEKYVDMSVKTKIQKLGRAMREIV
B4: ATP synthase, H^+ transporting, mitochondrial F0 complex, subunit b, isoform 1 (enzyme, human, UniProt P24539 43-256, looked up)
chain: PVPPLPEYGGKVRYGLIPEEFFQFLYPKTGVTGPYVLGTGLILYALSKEIYVISAETFTALSVLGVMVYGIKKYGPFVADFADKLNEQKLAQLEEAKQASIQHIQNAIDTEKSQQALVQKRHYLFDVQRNNIAMALEVTYRERLYRVYKEVKNRLDYHISVQNMMRRKEQEHMINWVEKHVVQSISTQQEKETIAKCIADLKLLAKKAQAQPVM
B5: phosphate carrier precursor isoform 1b (protein, human, UniProt Q00325-2 50-361, looked up)
chain: AVEEYSCEFGSAKYYALCGFGGVLSCGLTHTAVVPLDLVKCRMQVDPQKYKGIFNGFSVTLKEDGVRGLAKGWAPTFLGYSMQGLCKFGFYEVFKVLYSNMLGEENTYLWRTSLYLAASASAEFFADIALAPMEAAKVRIQTQPGYANTLRDAAPKMYKEEGLKAFYKGVAPLWMRQIPYTMMKFACFERTVEALYKFVVPKPRSECSKPEQLVVTFVAGYIAGVFCAIVSHPADSVVSVLNKEKGSSASLVLKRLGFKGVWKGLFARIIMIGTLTALQWFIYDSVKVYFRLPRPPPPEMPESLKKKLGLTQ
B6: androgen-regulated short-chain dehydrogenase/reductase 1 (enzyme, human, UniProt Q8TC12 1-318, looked up)
chain: MVELMFPLLLLLLPFLLYMAAPQIRKMLSSGVCTSTVQLPGKVVVVTGANTGIGKETAKELAQRGARVYLACRDVEKGELVAKEIQTTTGNQQVLVRKLDLSDTKSIRAFAKGFLAEEKHLHVLINNAGVMMCPYSKTADGFEMHIGVNHLGHFLLTHLLLEKLKESAPSRIVNVSSLAHHLGRIHFHNLQGEKFYNAGLAYCHSKLANILFTQELARRLKGSGVTTYSVHPGTVQSELVRHSSFMRWMWWLFSFFIKTPQQGAQTSLHCALTEGLEILSGNHFSDCHVAWVSAQARNETIARRLWDVSCDLLGLPID
B7: solute carrier family 25 (mitochondrial carrier; oxoglutarate carrier), member 11 (protein, human, UniProt Q02978 2-314, looked up)
chain: AATASAGAGGIDGKPRTSPKSVKFLFGGLAGMGATVFVQPLDLVKNRMQLSGEGAKTREYKTSFHALTSILKAEGLRGIYTGLSAGLLRQATYTTTRLGIYTVLFERLTGADGTPPGFLLKAVIGMTAGATGAFVGTPAEVALIRMTADGRLPADQRRGYKNVFNALIRITREEGVLTLWRGCIPTMARAVVVNAAQLASYSQSKQFLLDSGYFSDNILCHFCASMISGLVTTAASMPVDIAKTRIQNMRMIDGKPEYKNGLDVLFKVVRYEGFFSLWKGFTPYYARLGPHTVLTFIFLEQMNKAYKRLFLSG
B8: 3-hydroxybutyrate dehydrogenase precursor (enzyme, human, UniProt Q02338 47-343, looked up)
chain: ASAAEPVGSKAVLVTGCDSGFGFSLAKHLHSKGFLVFAGCLMKDKGHDGVKELDSLNSDRLRTVQLNVCSSEEVEKVVEIVRSSLKDPEKGMWGLVNNAGISTFGEVEFTSLETYKQVAEVNLWGTVRMTKSFLPLIRRAKGRVVNISSMLGRMANPARSPYCITKFGVEAFSDCLRYEMYPLGVKVSVVEPGNFIAATSLYSPESIQAIAKKMWEELPEVVRKDYGKKYFDEKIAKMETYCSSGSTDTSPVIDAVTHALTATTPYTRYHPMDYYWWLRMQIMTHLPGAISDMIYIR
B9: farnesyl-diphosphate farnesyltransferase 1 (enzyme, human, UniProt P37268 1-417, looked up)
chain: MEFVKCLGHPEEFYNLVRFRIGGKRKVMPKMDQDSLSSSLKTCYKYLNQTSRSFAAVIQALDGEMRNAVCIFYLVLRALDTLEDDMTISVEKKVPLLHNFHSFLYQPDWRFMESKEKDRQVLEDFPTISLEFRNLAEKYQTVIADICRRMGIGMAEFLDKHVTSEQEWDKYCHYVAGLVGIGLSRLFSASEFEDPLVGEDTERANSMGLFLQKTNIIRDYLEDQQGGREFWPQEVWSRYVKKLGDFAKPENIDLAVQCLNELITNALHHIPDVITYLSRLRNQSVFNFCAIPQVMAIATLAACYNNQQVFKGAVKIRKGQAVTLMMDATNMPAVKAIIYQYMEEIYHRIPDSDPSSSKTRQIISTIRTQNLPNCQLISRSHYSPIYLSFVMLLAALSWQYLTTLSQVTEDYVQTGEH
B10: dolichyl-diphosphooligosaccharide-protein glycosyltransferase (enzyme, human, UniProt P39656 43-456, looked up)
chain: SGPRTLVLLDNLNVRETHSLFFRSLKDRGFELTFKTADDPSLSLIKYGEFLYDNLIIFSPSVEDFGGNINVETISAFIDGGGSVLVAASSDIGDPLRELGSECGIEFDEEKTAVIDHHNYDISDLGQHTLIVADTENLLKAPTIVGKSSLNPILFRGVGMVADPDNPLVLDILTGSSTSYSFFPDKPITQYPHAVGKNTLLIAGLQARNNARVIFSGSLDFFSDSFFNSAVQKAAPGSQRYSQTGNYELAVALSRWVFKEEGVLRVGPVSHHRVGETAPPNAYTVTDLVEYSIVIQQLSNGKWVPFDGDDIQLEFVRIDPFVRTFLKKKGGKYSVQFKLPDVYGVFQFKVDYNRLGYTHLYSSTQVSVRPLQHTQYERFIPSAYPYYASAFSMMLGLFIFSIVFLHMKEKEKSD

Target: GST gal9CT (GST-fused galectin-9 C-terminal region, immobilised on a column) (human) (UniProt O00182)
Assay: GST-gal9CT affinity column, MOLT-4 detergent extract after GST pre-column, 200 mM lactose elution; SDS-PAGE band C, internal sequence analysis

| Molecule | binding |
| --- | --- |
| ATP synthase, beta chain (from UniProt P06576 48-529) (enzyme) | binds |
| Sodium/potassium-transporting ATPase beta-3 chain (from UniProt P54709 1-279) | binds |

Target: GST gal9CT (GST-fused galectin-9 C-terminal region, immobilised on a column) (human) (UniProt O00182)
Assay: GST-gal9CT affinity column, MOLT-4 detergent extract after GST pre-column, 200 mM lactose elution; SDS-PAGE Band 7, LC-MS/MS (Mascot)

| Molecule | binding |
| --- | --- |
| Hnrnp A1 (from UniProt P09651 2-320) | binds |
| B1 | binds |
| B2 | binds |

Target: GST gal9CT (GST-fused galectin-9 C-terminal region, immobilised on a column) (human) (UniProt O00182)
Assay: GST-gal9CT affinity column, MOLT-4 detergent extract after GST pre-column, 200 mM lactose elution; SDS-PAGE Band 2, LC-MS/MS (Mascot)

| Molecule | binding |
| --- | --- |
| NADH dehydrogenase (ubiquinone) Fe-S protein 1, 75 kDa (NADH-coenzyme Q reductase) (from UniProt P28331 24-727) | binds |
| fatty-acid-Coenzyme A ligase, long-chain 3 (from UniProt O95573 1-720) | binds |
| heat shock 70 kDa protein 5 (glucose-regulated protein, 78 kDa) (from UniProt P11021 19-654) | binds |
| heat shock 70 kDa protein 8 isoform 2 (from UniProt P11142 2-493) | binds |
| heat shock 70 kDa protein 9B precursor (from UniProt P38646 47-679) | binds |

Target: GST gal9CT (GST-fused galectin-9 C-terminal region, immobilised on a column) (human) (UniProt O00182)
Assay: GST-gal9CT affinity column, MOLT-4 detergent extract after GST pre-column, 200 mM lactose elution; SDS-PAGE Band 9, LC-MS/MS (Mascot)

| Molecule | binding |
| --- | --- |
| ATP synthase, H^+ transporting, mitochondrial F0 complex, subunit d (from UniProt O75947 2-161) (enzyme) | binds |
| NADH dehydrogenase (ubiquinone) Fe-S protein 8, 23 kDa (NADH-coenzyme Q reductase) (from UniProt O00217 35-210) | binds |
| vesicle trafficking protein sec22b (from UniProt O75396 2-215) | binds |
| B3 | binds |
| B4 | binds |

Target: GST gal9CT (GST-fused galectin-9 C-terminal region, immobilised on a column) (human) (UniProt O00182)
Assay: GST-gal9CT affinity column, MOLT-4 detergent extract after GST pre-column, 200 mM lactose elution; SDS-PAGE Band 3, LC-MS/MS (Mascot)

| Molecule | binding |
| --- | --- |
| 60 kDa heat shock protein, mitochondrial precursor (from UniProt P10809 27-573) | binds |
| S-adenosylhomocysteine hydrolase-like 1 (from UniProt O43865 2-530) | binds |

Target: GST gal9CT (GST-fused galectin-9 C-terminal region, immobilised on a column) (human) (UniProt O00182)
Assay: GST-gal9CT affinity column, MOLT-4 detergent extract after GST pre-column, 200 mM lactose elution; SDS-PAGE Band 8, LC-MS/MS (Mascot)

| Molecule | binding |
| --- | --- |
| hyaluronan-binding protein precursor (from UniProt Q07021 74-282) | binds |
| voltage-dependent anion channel 1 (from UniProt P21796 2-283) | binds |
| B2 | binds |
| B5 | binds |
| B6 | binds |
| B7 | binds |
| B8 | binds |

Target: GST gal9CT (GST-fused galectin-9 C-terminal region, immobilised on a column) (human) (UniProt O00182)
Assay: GST-gal9CT affinity column, MOLT-4 detergent extract after GST pre-column, 200 mM lactose elution; SDS-PAGE Band 1, LC-MS/MS (Mascot)

| Molecule | binding |
| --- | --- |
| 4F2 heavy chain antigen (from UniProt P08195 2-529) | binds |
| heat shock 90 kDa protein 1, beta (from UniProt P08238 2-724) | binds |
| stromal cell derived factor receptor 1 isoform a (from UniProt Q9Y639 29-282) | binds |

Target: GST gal9CT (GST-fused galectin-9 C-terminal region, immobilised on a column) (human) (UniProt O00182)
Assay: GST-gal9CT affinity column, MOLT-4 detergent extract after GST pre-column, 200 mM lactose elution; SDS-PAGE Band 5, LC-MS/MS (Mascot)

| Molecule | binding |
| --- | --- |
| B9 | binds |
| B10 | binds |
